From patent publication US6372212B1, “Chitinase materials and methods” (ICOS Corporation, priority 1996, dated 2002) come the findings set out here.

Details of the data set: species or system Female Balb/c mice. Conditions: mouse, in vivo, iv. The protocol:
The pharmacokinetics of recombinant human chitinase in mice were determined as follows. Female Balb/c mice, 6-8 weeks old, were injected intravenously in the tail vein with 0.5 mg/kg, 5.0 mg/kg and 50 mg/kg recombinant human chitinase. For each dose, mice were terminally bled at 0.01, 0.25, 1, 8 and 24 hours after injection (2 animals were used per time point per dosage). Serum samples were then assayed for chitinase activity and concentration.

Read-outs that look alike come from different tables or passages of the source.

B1: A: rH-Chitinase: Recombinant human chitinase (full length, pRc/CMV-MO-13B, SEQ ID NO: 4) produced in COS cells according to Example 5A (protein)
chain: MVRSVAWAGFMVLLMIPWGSAAKLVCYFTNWAQYRQGEARFLPKDLDPSLCTHLIYAFAGMTNHQLSTTEWNDETLYQEFNGLKKMNPKLKTLLAIGGWNFSTQKFTDMVATANNRQTFVNSAIRFLRKYSFDGLDLDWEYPGSQGSPAVDKERFTTLVQDLANAFQQEAQTSGKERLLLSAAVPAGQTYVDAGYEVDKIAQNLDFVNLMAYDFHGSWEKVTGHNSPLYKRQEESGAAASLNVDAAVQQWLQKGTPASKLILGMPTYGRSFTLASSSDTRVGAPATGSGTPGPFTKEGGMLAYYEVCSWKGATKQRIQDQKVPYIFRDNQWVGFDDVESFKTKVSYLKQKGLGGAMVWALDLDDFAGFSCNQGRYPLIQTLRQELSLPYLPSGTPELEVPKPGQPSEPEHGPSPGQDTFCQGKADGLYPNPRERSSFYSCAAGRLFQQSCPTGLVFSNSCKCCTWN
The half-life is the time in which the quantity being followed falls by half. Consider B1, for which, under “0.5 mg/kg”, the “AUC (area under curve to time infinity)” value was found to be 31.24 µg/mL/h, the “Cmax (peak serum concentration)” value was 22.30 µg, the “Vss (steady state volume of distribution)” value (“Vss” below) came out at 0.01203 L/kg and the “cL (clearance)” value turned out to be 0.2668 mL/min/kg. Moreover, the half-life (0.5 mg/kg) is given as 0.74 h. Also, for the setting “5 mg/kg”, the “AUC (area under curve to time infinity)” value amounted to 278.50 µg/mL/h, the “Cmax (peak serum concentration)” value was 162.84 µg, the “Vss” value came to 0.01361 L/kg and the “cL (clearance)” value turned out to be 0.2992 mL/min/kg. The molecule further registered a half-life (5 mg/kg) of 1.38 h. Also, where the note is “50 mg/kg”, the “AUC (area under curve to time infinity)” value was found to be 2505.83 µg/mL/h, the “Cmax (peak serum concentration)” value is 1179.19 µg, the “Vss” value was determined as 0.05292 L/kg and the “cL (clearance)” value came to 0.3325 mL/min/kg. For the setting “50 mg/kg”, this molecule gave a half-life of 2.33 h.
